In patent US20120184536A1, “COMPOSITIONS COMPRISING SPECIFIC UGT INHIBITORS AND METHODS OF USE THEREOF” (The Board of Trustees of the University of Arkansas, priority 2009, published 2012):
Some results were stated once for a whole list of compounds, not compound by compound. For at least one compound, name, drawing or mass did not settle the structure.

Target: T1, UGT2B7 (Homo sapiens, UniProt P16662)
T1 sequence (P16662 24-529): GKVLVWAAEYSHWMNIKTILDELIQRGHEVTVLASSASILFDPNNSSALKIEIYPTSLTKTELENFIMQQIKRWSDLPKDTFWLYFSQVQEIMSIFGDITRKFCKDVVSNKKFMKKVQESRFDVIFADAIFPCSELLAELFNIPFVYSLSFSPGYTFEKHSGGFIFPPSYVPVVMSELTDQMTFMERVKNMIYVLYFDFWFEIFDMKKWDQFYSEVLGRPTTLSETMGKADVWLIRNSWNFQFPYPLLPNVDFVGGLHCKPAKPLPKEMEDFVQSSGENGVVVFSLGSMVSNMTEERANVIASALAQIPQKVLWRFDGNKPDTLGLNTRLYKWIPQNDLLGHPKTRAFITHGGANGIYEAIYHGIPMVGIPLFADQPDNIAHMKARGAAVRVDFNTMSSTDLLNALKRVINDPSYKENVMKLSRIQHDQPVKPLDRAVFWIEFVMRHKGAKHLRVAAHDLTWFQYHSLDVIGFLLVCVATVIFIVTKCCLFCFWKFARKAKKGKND
Assay: IC50 assays, inhibition of UGT2B7 glucuronidation (Example 1)
Conditions: read-out: IC50 values for pNP, substrate pNP, difficult to measure accurately

| Compound | IC50 [mM] |
| --- | --- |
| CCCCCCCCCC(=O)NC(COC(=O)NCC(=O)NCC1OC(n2ccc(=O)[nH]c2=O)C(O)C1O)C(O)c1ccccc1 (centres unmarked) [PP36] | > 1 |
| CCCCCCCCCC(=O)NC(COC(=O)CS(=O)(=O)OCC1OC(n2ccc(=O)[nH]c2=O)C(O)C1O)Cc1ccccc1 (centres unmarked) [PP56B] | > 1 |
